According to patent publication EP2446883A1:
No constants are given. Whether binding was seen depends on the method and setting. In cells and extracts the contact can be indirect. Some results given as binding are weak or reduced against the parent protein; the word gives no strength.

By UniProt entry, the sequences of proteins in these tests, tags left out.
UniProt Q04206: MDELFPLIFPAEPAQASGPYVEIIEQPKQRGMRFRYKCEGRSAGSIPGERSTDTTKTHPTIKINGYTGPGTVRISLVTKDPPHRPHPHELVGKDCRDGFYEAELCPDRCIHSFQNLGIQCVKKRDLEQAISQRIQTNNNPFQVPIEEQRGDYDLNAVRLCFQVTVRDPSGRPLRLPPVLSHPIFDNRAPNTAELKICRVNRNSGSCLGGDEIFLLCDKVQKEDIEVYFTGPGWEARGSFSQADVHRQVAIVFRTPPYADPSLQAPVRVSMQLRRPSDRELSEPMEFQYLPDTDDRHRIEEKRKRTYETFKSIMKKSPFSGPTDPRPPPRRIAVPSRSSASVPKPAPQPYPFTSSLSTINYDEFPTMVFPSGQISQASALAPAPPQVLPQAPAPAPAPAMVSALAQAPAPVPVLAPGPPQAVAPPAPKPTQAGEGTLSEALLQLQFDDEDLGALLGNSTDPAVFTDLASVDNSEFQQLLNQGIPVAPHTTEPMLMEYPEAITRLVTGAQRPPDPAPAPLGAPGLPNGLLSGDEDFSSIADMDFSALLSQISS
UniProt Q93009: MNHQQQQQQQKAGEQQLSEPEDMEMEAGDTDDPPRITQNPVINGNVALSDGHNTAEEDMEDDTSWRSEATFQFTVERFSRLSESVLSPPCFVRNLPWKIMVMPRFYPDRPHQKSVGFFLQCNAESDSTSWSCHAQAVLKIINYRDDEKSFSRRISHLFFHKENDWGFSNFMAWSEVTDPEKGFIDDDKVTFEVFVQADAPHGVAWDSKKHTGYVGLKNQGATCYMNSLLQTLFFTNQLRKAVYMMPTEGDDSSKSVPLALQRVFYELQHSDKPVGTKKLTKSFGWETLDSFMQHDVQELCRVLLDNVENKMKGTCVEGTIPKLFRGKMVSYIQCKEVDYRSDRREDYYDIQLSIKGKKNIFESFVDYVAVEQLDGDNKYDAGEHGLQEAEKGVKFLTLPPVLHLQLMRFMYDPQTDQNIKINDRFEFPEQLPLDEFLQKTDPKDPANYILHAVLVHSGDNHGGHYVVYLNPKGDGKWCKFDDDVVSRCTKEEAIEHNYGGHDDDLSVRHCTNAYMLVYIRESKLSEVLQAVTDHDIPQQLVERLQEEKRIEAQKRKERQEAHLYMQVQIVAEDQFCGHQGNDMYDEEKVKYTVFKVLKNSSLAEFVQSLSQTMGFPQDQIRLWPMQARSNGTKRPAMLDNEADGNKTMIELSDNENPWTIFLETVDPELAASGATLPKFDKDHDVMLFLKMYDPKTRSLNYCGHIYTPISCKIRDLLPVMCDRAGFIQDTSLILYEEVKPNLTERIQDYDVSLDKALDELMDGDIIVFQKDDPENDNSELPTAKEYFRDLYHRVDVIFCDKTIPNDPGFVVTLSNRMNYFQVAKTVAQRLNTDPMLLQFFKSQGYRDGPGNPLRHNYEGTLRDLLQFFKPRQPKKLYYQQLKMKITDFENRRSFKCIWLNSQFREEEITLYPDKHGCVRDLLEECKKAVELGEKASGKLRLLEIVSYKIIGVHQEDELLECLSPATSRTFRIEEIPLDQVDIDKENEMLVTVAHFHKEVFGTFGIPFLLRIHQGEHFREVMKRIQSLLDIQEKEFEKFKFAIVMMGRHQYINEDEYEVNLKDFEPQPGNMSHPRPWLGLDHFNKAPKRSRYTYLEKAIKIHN

Assays:
[1] = molecular target: NF-κB subunit RelA/p65, expressed from a vector in HEK293 cells (UniProt Q04206); assay: co-immunoprecipitation from transfected HEK293T cells (anti-RelA/p65 IP, anti-FLAG blot)
[2] = molecular target: NF-κB subunit RelA/p65, expressed from a vector in HEK293 cells (UniProt Q04206); assay: co-immunoprecipitation from transfected HEK293 cells

Substance: FLAG-tagged USP7 (Ubiquitin Serine Protease 7), expressed from a vector in HEK293 cells (from UniProt Q93009 1-1102) (enzyme)
- binding [1]: binds
- binding [2]: binds
